Measured values published in paper PMC5101391.
Results are given in words; binding and its absence hold for the method and conditions named. Binding seen in cells or lysates may run through a third protein. Some binding calls cover weakened binding; strength is not graded here.

Legend:
[1] = biological target: T1, TRAF-interacting protein (TRIP), endogenous in RA-FLS-Ctrl cells (human (endogenous in RA-FLS)) (UniProt Q9BWF2); experiment: co-IP; extracts of RA-FLS (RA-FLS-Ctrl or RA-FLS-TRIP), unstimulated or stimulated with TNFα (100 ng/mL) for various times, with proteasome inhibitor Mg132; immunoprecipitation with anti-TRIP or control IgG and protein G Plus-Agarose for 5 hours, immunoblot for TAK1
T1 sequence: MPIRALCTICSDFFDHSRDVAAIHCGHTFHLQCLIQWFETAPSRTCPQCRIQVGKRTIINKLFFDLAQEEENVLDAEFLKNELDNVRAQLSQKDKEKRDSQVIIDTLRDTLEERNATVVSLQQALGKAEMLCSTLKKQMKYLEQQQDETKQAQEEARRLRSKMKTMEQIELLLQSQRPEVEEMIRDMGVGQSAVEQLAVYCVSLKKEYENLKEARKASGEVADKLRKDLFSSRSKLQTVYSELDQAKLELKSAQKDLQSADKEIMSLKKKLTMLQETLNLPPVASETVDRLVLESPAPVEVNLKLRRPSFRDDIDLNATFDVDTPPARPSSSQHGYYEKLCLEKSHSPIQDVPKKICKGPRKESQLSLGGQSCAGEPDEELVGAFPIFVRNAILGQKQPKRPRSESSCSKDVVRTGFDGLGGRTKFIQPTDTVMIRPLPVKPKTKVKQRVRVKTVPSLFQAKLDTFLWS

[2] = biological target: T2, TRAF-interacting protein (TRIP), wild type, stably overexpressed in RA-FLS by lentivirus (UniProt Q9BWF2); experiment: as above
T2 sequence: T1 sequence

binding [1]: binds weakly | binding [2]: binds
B1: transforming growth factor β-activated kinase 1 (TAK1) (protein, UniProt O43318 1-606)
chain: MSTASAASSSSSSSAGEMIEAPSQVLNFEEIDYKEIEVEEVVGRGAFGVVCKAKWRAKDVAIKQIESESERKAFIVELRQLSRVNHPNIVKLYGACLNPVCLVMEYAEGGSLYNVLHGAEPLPYYTAAHAMSWCLQCSQGVAYLHSMQPKALIHRDLKPPNLLLVAGGTVLKICDFGTACDIQTHMTNNKGSAAWMAPEVFEGSNYSEKCDVFSWGIILWEVITRRKPFDEIGGPAFRIMWAVHNGTRPPLIKNLPKPIESLMTRCWSKDPSQRPSMEEIVKIMTHLMRYFPGADEPLQYPCQYSDEGQSNSATSTGSFMDIASTNTSNKSDTNMEQVPATNDTIKRLESKLLKNQAKQQSESGRLSLGASRGSSVESLPPTSEGKRMSADMSEIEARIAATTAYSKPKRGHRKTASFGNILDVPEIVISGNGQPRRRSIQDLTVTGTEPGQVSSRSSSPSVRMITTSGPTSEKPTRSHPWTPDDSTDTNGSDNSIPMAYLTLDHQLQPLAPCPNSKESMAVFEQHCKMAQEYMKVQTEIALLLQRKQELVAELDQDEKDQQNTSRLVQEHKKLLDENKSLSTYYQQCKKQLEVIRSQQQKRQGTS
